Patent US20220324950A1
No constants are given. Whether binding was seen depends on the method and setting. Some results given as binding are weak or reduced against the parent protein; the word gives no strength.

Protein sequences, listed by entry. Tags and fused reporters are not part of them. Residues count along the entry.
UniProt Q8NHJ6, residues 22-259: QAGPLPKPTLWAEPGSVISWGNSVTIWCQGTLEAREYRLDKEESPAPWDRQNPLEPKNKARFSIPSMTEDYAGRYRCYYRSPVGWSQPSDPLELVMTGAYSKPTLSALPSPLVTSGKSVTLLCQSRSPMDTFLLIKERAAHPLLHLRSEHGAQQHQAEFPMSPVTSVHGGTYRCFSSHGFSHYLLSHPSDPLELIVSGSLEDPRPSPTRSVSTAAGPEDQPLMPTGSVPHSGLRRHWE
UniProt P02751, residues 32-608: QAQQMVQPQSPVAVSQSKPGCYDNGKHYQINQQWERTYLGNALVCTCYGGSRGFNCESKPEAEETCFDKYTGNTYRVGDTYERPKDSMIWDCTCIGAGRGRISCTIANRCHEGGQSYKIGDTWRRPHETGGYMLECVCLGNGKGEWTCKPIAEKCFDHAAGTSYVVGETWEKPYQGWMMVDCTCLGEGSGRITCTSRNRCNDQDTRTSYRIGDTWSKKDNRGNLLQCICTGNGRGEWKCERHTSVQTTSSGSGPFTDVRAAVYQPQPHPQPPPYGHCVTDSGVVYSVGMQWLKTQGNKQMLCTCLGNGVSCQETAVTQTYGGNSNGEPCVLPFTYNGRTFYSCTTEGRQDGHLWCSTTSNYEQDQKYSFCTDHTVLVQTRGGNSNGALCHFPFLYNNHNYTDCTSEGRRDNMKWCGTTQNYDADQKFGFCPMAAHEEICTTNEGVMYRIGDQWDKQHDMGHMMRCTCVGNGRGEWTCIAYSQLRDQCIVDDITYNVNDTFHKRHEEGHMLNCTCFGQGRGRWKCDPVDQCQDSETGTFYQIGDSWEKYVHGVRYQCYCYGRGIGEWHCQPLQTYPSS

Molecular target: His-tagged human LILRB4 (human) (UniProt Q8NHJ6)
Assay: BLI (BLItz), His-tagged human LILRB4 on Ni-NTA sensor

In the case of “N-terminal cathepsin D digested fragment 70 kDa polypeptide of human fibronectin (from UniProt P02751 32-608) (ligand)”, the binding is reported as “binds”.
